# In patent US20090111742A1, “Use of fgf-21 and thiazolidinedione for treating type 2 diabetes” (priority 2004, published 2009):
# For at least one compound, name, drawing or mass did not settle the structure.
# Tested on: differentiated 3T3-L1 cells
# Experiment: Glucose uptake in mouse 3T3-L1 adipocytes (2-deoxy-D-[14C]glucose accumulation)
# Type: cell-based
# Details: 72 hr. treatment
# Protocol: 3T3-Li cells are obtained from the American Type Culture Collection (ATCC, Rockville, Md.). Cells are cultured in growth medium (GM) containing 10% calf serum in Dulbecco's modified Eagle's medium. For standard adipocyte differentiation, two days after cells reach confluency (referred as day 0), the cells are exposed to differentiation medium (DM) containing 10% fetal bovine serum, 5 μg/ml of insulin, 1 μM dexamethasone, and […] isobutylmethylxanthine, for 48 h and then are exposed to medium containing 10% fetal bovine serum, 5 μg/ml insulin for an additional 48 h. Cells are then maintained in post differentiation medium containing 10% fetal bovine serum.
# Glucose Transport Assay—FGF-21 is added to the differentiated 3T3-L1 cells in 96 well plates at 0, 0.016, 0.08, 0.4, 2, 10, or 50.0 nM, and rosiglitazone is added to a final concentration of 1 μM, Table 1. For comparison, rosiglitazone alone is added at the concentrations indicated in Table 2 or in combination with FGF-21 at 1 μg/ml. The plates are incubated at 37° C. for 72 hours.
# Hexose uptake, as assayed by the accumulation of 2-deoxy-D-[^14C]glucose, is measured as follows: 24 hours prior to the assay, the wells are rinsed twice with PBS and DMEM (high glucose, 1% antibiotic/antimycotic solution, 2 mM glutamine), 0.1% BSA plus FGF-21 is added. The plates are incubated at 37° C. for 72 hours. The cells are then washed twice with KRP buffer (136 mM NaCl, 4.7 mM KCl, 10 mM NaPO4, 0.9 mM CaCl2, 0.9 MM MgSO4, 0.1% BSA, pH 7.4), and then KRP buffer containing 1% BSA, 2-deoxy-D-glucose, 100 μM, 0.1 μCi/well 2-deoxy-D-[^14C]glucose is added and the plates are incubated at 37° C. for one hour. Cytochalasin B is added to stop further glucose uptake. Uptake is measured on a Microbeta plate reader.
smiles,measurement,setting,value
"CN(CCOc1ccc(CC2SC(=O)NC2=O)cc1)c1ccccn1 (stereo not shown) [Rosi., rosiglitazone]",14C-Deoxyglucose (CPM),rosiglitazone alone 0.0032 μM,1700 CPM
same,14C-Deoxyglucose (CPM),rosiglitazone alone 0.016 μM,1800 CPM
same,14C-Deoxyglucose (CPM),rosiglitazone alone 0.08 μM,1700 CPM
same,14C-Deoxyglucose (CPM),rosiglitazone alone 0.4 μM,1650 CPM
same,14C-Deoxyglucose (CPM),rosiglitazone alone 2.0 μM,1600 CPM
same,14C-Deoxyglucose (CPM),rosiglitazone alone 10.0 μM,1600 CPM
same,effect on glucose uptake in 3T3 cells,rosiglitazone alone,no effect
